# Reference: PubChem BioAssay AID590 (National Center for Advancing Translational Sciences (NCATS), 2007)
# Values joined by “and” are separate entries in the source; they are usually repeats but may differ in a detail not shown here. Equal values may be shown once. Out of some 59,000 compounds screened, about 6,500 (11%) were called active. The shares of active, inactive and inconclusive entries below differ from those in the screen. Rule as the data show it: active = max dye-equivalent concentration above about 10 nM; inconclusive = mostly about 1.1 nM to 9.6 nM; inactive = weaker than that. Some compounds were tested as several samples or in several runs, with calls that do not always agree.
# Test: qHTS Assay for Spectroscopic Profiling in A350 Spectral Region
# Details: Compound autofluorescence, 340/450 nm, Alexa 350 dye-equivalents; hits give high values
row,SMILES,max dye-equivalent concentration
1,C[N+]1(C)CCO[C@](O)(c2ccc(-c3ccc([C@]4(O)C[N+](C)(C)CCO4)cc3)cc2)C1,inactive
2,[N-]=[N+]=CC(=O)CC[C@H](N)C(=O)O,inactive
3,COC(=O)CC1=C(C(=O)OC)C2(C(=O)N(C)c3ccccc32)C(C#N)=C(N)O1 (stereo unspecified),inconclusive: 7.4e-09 M
4,Cc1cccn2c(=O)c3cc(C(=O)N4CCC5(CC4)OCCO5)n(C)c3nc12,active: 9.1e-07 M
5,Cc1ccc2c(c1)CC1(CN2C)C(=O)NC(=O)N(C(C)C)C1=O (stereo unspecified),inconclusive: 1.8e-09 M
6,COC(=O)c1c(C)n(Cc2ccc3c(c2)OCO3)c2ccc(O)cc12,inactive
7,O=C(CN1C(=O)CCSc2ccccc21)N1CCC2(CC1)OCCO2,inactive
8,CP(=O)(O)CCCN,active: 1.7e-07 M
9,CCCCc1nc2ccccc2c(=O)n1-c1ccccc1O,inconclusive: 3.5e-09 M
10,Cc1cc(OCc2nn[nH]n2)c2c3c(c(=O)oc2c1)CCCC3,active: 2.2e-08 M
11,O=C(Cn1c2c(c(-c3ccccc3Cl)cc1=O)CCC2)N1CCC2(CC1)OCCO2,inconclusive: 3.9e-09 M
12,O=C(O)[C@H](Cc1cnc[nH]1)N1C(=O)c2ccccc2C1=O,inactive
13,Nc1ccccc1C(=O)OCCOc1ccccc1,active: 6.6e-08 M
14,CC12CC(c3ccccc3O1)C(C(=O)OCc1ccccc1)C(=O)N2 (stereo unspecified),inconclusive: 2.3e-09 M
15,NS(=O)(=O)c1ccc(-c2ccc([As](=O)(O)O)cc2)cc1,inactive
16,COc1ccc(C[C@H]2c3cc(OC)c(OC)cc3CCN2C)cc1OC,active: 1.7e-08 M
17,Cc1noc(C)c1C(=O)N1CCC2(CC1)OCCO2,inactive
18,COc1ccc(CCn2c(O)c(C=NCc3cccnc3)c(=O)[nH]c2=O)cc1OC,inconclusive: 1.7e-09 M
19,CCCCn1c(=O)c(C(=O)Nc2cnccn2)c(O)c2ccccc21,inconclusive: 2.3e-09 M

row,SMILES,max dye-equivalent concentration
1,O=c1cccc2n1CC1CC2CN(c2ncnc3c2cnn3-c2ccccc2)C1 (stereo unspecified),inconclusive: 2.3e-09 M
2,Cc1nc2cc(-c3cccc(F)c3)nn2c(C)c1CCC(=O)N1CCC2(CC1)OCCO2,inconclusive: 6.1e-09 M
3,N#Cc1ccccc1Cn1cc(C(=O)c2cccs2)c2ccccc21,inconclusive: 7.6e-09 M
4,CCOC(=O)c1c(N)n(CCN2CCCCC2)c2nc3ccccc3nc12,active: 2.8e-06 M
5,CCC(=NCC1CCCO1)c1c(O)n(-c2ccc(Cl)cc2)c(=O)[nH]c1=O (stereo unspecified),inconclusive: 5.4e-09 M
6,c1ccc(C[N+]23CN4CN(CN(C4)C2)C3)cc1,inactive
7,CC(=NCC1CCCO1)c1c(O)n(Cc2ccccc2)c(=O)[nH]c1=O (stereo unspecified),inconclusive: 6.5e-09 M
8,O=C1C2CCCN2C(c2cccnc2)N1c1nccs1 (stereo unspecified),inactive
9,CC(=O)[C@H]1CC[C@H]2[C@@H]3CC[C@H]4C[C@H](O)CC[C@]4(C)[C@H]3C(=O)C[C@]12C,inconclusive: 1.9e-09 M
10,COc1ccc2c(c1)[C@]13CCCC[C@@H]1[C@H](C2)NCC3,inactive
11,O=C1NC(=O)[C@]2(Cc3ccccc3N3CCN(c4ccccc4)CC32)C(=O)N1Cc1ccccc1 (stereo partly specified),inconclusive: 2.2e-09 M
12,O=C(CCCC1=NS(=O)(=O)c2ccccc2N1)N1CCC2(CC1)OCCO2,inconclusive: 1.5e-09 M
13,C[C@@]12CCC(=O)C=C1C=C[C@H]1[C@H]3CC[C@](O)(CCC(=O)O)[C@]3(C)CC[C@@H]12,inconclusive: 4.5e-09 M
14,CC12CCCCC1N(O)CN2O (stereo unspecified),active: 6e-08 M
15,COCCn1cc(C(=O)N2CCC3(CC2)OCCO3)c2c3ccccc3n(C)c2c1=O,active: 7.5e-07 M
16,COc1ccc(S(=O)(=O)NCc2ccc(C(=O)N3CCC4(CC3)OCCO4)cc2)cc1,inconclusive: 1.2e-09 M
17,C=CCN1CC[C@]23c4c5ccc(O)c4O[C@@H]2C(=O)CC[C@@]3(O)[C@H]1C5,inactive
18,CCC(=Nc1ccccc1NC(C)=O)c1c(O)n(C)c(=O)n(C)c1=O,inconclusive: 2.9e-09 M
19,CCC(=NC1CC1)c1c(O)n(-c2ccc(OC)cc2)c(=O)[nH]c1=O,inconclusive: 1.4e-09 M

row,SMILES,max dye-equivalent concentration
1,Nc1nnnn1CCO,inactive
2,Cn1c(O)c(C=NC2CC3CCC2(C)C3(C)C)c(=O)[nH]c1=O (stereo unspecified),inconclusive: 4e-09 M
3,CCOC(=O)N(c1ccccc1)P1(=S)OCCO1,inconclusive: 1.6e-09 M
4,NNc1nncn1N,inactive
5,COC(=O)[C@H]1C(=O)[C@H](C(=O)OC)[C@@H]2CC[C@H]1N2C,inconclusive: 1.3e-09 M
6,O=P(O)(O)CCP(=O)(O)O,inactive
7,COc1ccc(C[C@@H]2NC[C@H](O)[C@@H]2OC(C)=O)cc1,inconclusive: 1.8e-09 M
8,C=C[C@H]1CN2CC[C@@H]1C[C@H]2[C@@H](O)c1ccnc2ccccc12,inconclusive: 2.9e-09 M and inconclusive: 1.5e-09 M
9,CCN(CC)CCCN=C(C)c1c(O)n(C2CCCCC2)c(=O)[nH]c1=O,inconclusive: 1.7e-09 M
10,CN(C)[C@@H]1C(=O)C(C(N)=O)=C(O)[C@@]2(O)C(=O)C3=C(O)c4c(O)cccc4[C@@](C)(O)[C@H]3[C@H](O)[C@@H]12,active: 3e-08 M
11,CC(=NCc1ccc2c(c1)OCO2)c1c(O)n(C)c(=O)n(C)c1=O,inconclusive: 3.6e-09 M
12,c1ccc(N2CC[C@@]3(CCCNC3)C2)nc1,inactive
13,COc1ccccc1OCCCn1cc(C(=O)c2ccco2)c2ccccc21,inconclusive: 2.2e-09 M
14,O=C1C[C@H]2OCCC=C3CN4CC[C@@]56c7ccccc7N1[C@@H]5[C@H]2[C@H]3C[C@@H]46,inactive
15,Cc1c(N=Cc2c(O)n(CCc3ccccc3)c(=O)[nH]c2=O)c(=O)n(-c2ccccc2)n1C,inconclusive: 5.5e-09 M
16,CCCCNC(=O)Nc1ccc(C(O)(C(=O)OCC)C(F)(F)F)cc1 (stereo unspecified),inconclusive: 1.3e-09 M
17,COCCCn1c(N)c(C(=O)OCCOC)c2nc3ccccc3nc21,active: 1.3e-05 M
18,CCOC(=O)CCN=Cc1c(O)n(-c2ccc(Br)cc2)c(=O)[nH]c1=O,inconclusive: 1.1e-09 M

# Exported as tab-separated lines: 5 of the compounds above
row	SMILES	max dye-equivalent concentration
5	COC(=O)[C@H]1C(=O)[C@H](C(=O)OC)[C@@H]2CC[C@H]1N2C	inconclusive: 1.3e-09 M
8	C=C[C@H]1CN2CC[C@@H]1C[C@H]2[C@@H](O)c1ccnc2ccccc12	inconclusive: 2.9e-09 M and inconclusive: 1.5e-09 M
11	CC(=NCc1ccc2c(c1)OCO2)c1c(O)n(C)c(=O)n(C)c1=O	inconclusive: 3.6e-09 M
15	Cc1c(N=Cc2c(O)n(CCc3ccccc3)c(=O)[nH]c2=O)c(=O)n(-c2ccccc2)n1C	inconclusive: 5.5e-09 M
17	COCCCn1c(N)c(C(=O)OCCOC)c2nc3ccccc3nc21	active: 1.3e-05 M
